According to patent US20240425571A1, “GLYCOPROTEIN A REPETITIONS PREDOMINANT (GARP)-BINDING ANTIBODIES AND USES THEREOF” (OHIO STATE INNOVATION FOUNDATION, priority 2021, published 2024):
No constants are given. Whether binding was seen depends on the method and setting. Some results given as binding are weak or reduced against the parent protein; the word gives no strength.

The chains behind the UniProt entries cited, without tags or fusion partners. Residues count along the entry.
UniProt P04202, residues 30-278: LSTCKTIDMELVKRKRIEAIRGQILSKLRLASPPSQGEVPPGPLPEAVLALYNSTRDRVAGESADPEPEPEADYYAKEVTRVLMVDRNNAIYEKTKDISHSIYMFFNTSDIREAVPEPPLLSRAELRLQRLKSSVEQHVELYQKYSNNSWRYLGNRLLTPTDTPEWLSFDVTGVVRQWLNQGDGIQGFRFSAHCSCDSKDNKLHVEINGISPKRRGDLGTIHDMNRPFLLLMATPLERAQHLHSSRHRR

Target: T1, mouse GARP (mouse) (UniProt G3XA59)
T1 sequence: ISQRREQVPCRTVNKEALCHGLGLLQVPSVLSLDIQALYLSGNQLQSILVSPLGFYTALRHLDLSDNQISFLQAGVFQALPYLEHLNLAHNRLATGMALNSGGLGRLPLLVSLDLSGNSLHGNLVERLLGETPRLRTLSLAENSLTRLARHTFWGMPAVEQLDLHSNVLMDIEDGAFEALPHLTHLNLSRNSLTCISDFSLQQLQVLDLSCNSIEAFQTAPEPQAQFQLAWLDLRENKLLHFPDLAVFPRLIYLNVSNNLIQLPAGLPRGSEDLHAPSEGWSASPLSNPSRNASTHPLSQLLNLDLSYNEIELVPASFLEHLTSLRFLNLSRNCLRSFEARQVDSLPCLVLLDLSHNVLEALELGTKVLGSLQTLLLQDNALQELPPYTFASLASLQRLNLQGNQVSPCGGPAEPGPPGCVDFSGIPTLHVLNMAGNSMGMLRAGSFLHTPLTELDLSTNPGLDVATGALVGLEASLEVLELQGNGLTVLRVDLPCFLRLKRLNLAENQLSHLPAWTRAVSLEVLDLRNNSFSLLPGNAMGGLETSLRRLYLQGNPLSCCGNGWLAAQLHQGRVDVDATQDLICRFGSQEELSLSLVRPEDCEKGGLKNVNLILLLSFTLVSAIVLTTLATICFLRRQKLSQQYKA
Experiment: flow cytometry on mouse platelets

For “mouse LAP (latency-associated peptide of mouse latent TGFβ) (from UniProt P04202 30-278) (ligand)”, the binding was “binds”.
